Experimental data as given in paper PMC4599652.
Results are given in words; binding and its absence hold for the method and conditions named. Binding seen in cells or lysates may run through a third protein. Some entries that bind do so weakly or less than the wild type.

Chains of the proteins cited; added tags and fusions are not shown. Residues count along the entry.
UniProt O55242: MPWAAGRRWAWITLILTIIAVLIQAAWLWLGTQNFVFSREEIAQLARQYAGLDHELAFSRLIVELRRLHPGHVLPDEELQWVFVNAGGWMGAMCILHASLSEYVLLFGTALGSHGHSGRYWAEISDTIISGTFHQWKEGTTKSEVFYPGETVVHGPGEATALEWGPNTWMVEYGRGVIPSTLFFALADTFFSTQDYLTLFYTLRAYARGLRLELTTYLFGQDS
UniProt P20029, residues 20-655: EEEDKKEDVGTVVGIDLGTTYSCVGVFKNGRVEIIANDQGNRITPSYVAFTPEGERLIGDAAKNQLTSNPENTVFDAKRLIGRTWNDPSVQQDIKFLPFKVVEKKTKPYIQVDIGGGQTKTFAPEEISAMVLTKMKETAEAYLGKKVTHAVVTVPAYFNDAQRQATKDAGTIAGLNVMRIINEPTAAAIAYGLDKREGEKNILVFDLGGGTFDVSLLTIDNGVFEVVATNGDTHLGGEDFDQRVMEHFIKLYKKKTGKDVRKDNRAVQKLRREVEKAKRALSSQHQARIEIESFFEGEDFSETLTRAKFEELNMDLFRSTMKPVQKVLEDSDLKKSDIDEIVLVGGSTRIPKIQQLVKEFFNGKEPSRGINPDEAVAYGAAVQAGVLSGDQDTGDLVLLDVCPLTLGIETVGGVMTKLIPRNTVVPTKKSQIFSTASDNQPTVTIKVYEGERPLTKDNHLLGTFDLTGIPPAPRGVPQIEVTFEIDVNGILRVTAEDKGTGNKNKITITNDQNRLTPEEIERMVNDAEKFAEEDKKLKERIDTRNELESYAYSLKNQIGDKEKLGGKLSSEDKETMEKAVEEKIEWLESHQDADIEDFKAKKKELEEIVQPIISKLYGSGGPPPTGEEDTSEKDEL
UniProt Q01097, residues 27-1482: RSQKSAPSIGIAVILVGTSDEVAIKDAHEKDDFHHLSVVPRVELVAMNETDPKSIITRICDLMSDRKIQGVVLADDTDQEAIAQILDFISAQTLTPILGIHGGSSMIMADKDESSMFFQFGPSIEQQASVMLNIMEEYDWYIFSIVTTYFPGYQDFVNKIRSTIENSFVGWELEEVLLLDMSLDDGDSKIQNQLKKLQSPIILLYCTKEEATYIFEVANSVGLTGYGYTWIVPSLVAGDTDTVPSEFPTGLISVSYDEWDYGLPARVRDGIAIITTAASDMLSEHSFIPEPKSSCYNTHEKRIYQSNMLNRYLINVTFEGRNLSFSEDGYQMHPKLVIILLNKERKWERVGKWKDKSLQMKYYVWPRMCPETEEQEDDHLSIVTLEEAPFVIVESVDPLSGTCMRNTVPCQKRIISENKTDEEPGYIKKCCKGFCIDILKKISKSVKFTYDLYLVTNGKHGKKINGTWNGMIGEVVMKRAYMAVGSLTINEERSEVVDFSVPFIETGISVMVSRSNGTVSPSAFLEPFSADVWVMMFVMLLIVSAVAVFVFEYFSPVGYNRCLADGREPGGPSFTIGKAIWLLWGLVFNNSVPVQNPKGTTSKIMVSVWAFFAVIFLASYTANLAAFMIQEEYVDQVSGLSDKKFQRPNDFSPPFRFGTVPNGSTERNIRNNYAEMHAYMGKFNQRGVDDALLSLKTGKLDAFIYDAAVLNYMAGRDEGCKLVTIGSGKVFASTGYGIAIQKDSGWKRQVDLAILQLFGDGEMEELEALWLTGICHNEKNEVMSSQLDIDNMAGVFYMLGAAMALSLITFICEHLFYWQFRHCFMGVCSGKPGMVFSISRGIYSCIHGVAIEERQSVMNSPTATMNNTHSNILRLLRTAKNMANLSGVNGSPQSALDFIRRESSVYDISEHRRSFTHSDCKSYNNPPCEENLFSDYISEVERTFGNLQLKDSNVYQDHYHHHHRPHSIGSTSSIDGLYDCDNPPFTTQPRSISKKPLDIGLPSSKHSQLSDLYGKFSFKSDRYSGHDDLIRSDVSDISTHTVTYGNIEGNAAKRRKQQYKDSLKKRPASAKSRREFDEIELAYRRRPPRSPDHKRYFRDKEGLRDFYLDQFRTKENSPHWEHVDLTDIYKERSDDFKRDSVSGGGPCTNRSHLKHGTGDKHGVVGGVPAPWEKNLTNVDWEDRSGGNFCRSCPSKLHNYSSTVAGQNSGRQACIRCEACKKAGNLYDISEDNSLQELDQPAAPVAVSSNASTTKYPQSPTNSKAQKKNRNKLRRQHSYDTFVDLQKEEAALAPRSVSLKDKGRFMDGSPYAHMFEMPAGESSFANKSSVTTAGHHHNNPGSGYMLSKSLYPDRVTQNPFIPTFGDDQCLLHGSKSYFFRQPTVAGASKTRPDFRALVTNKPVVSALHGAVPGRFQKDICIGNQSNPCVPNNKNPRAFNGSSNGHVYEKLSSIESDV

Biological target: sigma receptor-1 (mouse (endogenous in brain cortex)) (UniProt O55242)
Assay: co-IP; solubilized brain cortex membrane fractions of wild-type and IL-10 knockout mice (20 mM Tris-HCl pH 8.0, 137 mM NaCl, 10 % glycerol, 1 % Triton X-100, 2 mM EDTA); anti-SigR1 antibody and Protein A/G-agarose overnight at 4 °C; eluate analysed by Western blotting

Substance | binding
immunoglobulin binding protein (from UniProt P20029 20-655) | binds
NR2B subunit of NMDA-receptor (from UniProt Q01097 27-1482) | binds
